No constants are given. Whether binding was seen depends on the method and setting. Binding seen in cells or lysates may run through a third protein. Some results given as binding are weak or reduced against the parent protein; the word gives no strength.
Tests used:
[1] = biological target: SUMO1 (mouse) (mouse (endogenous in C57BL/6 liver and RAW 264.7)) (UniProt P63166); assay: co-IP; total protein of peri-lesion and adjacent normal liver of CE and CE + GA mice; RIPA lysate; IP with anti-SUMO1 antibody or mouse IgG control, protein A/G magnetic beads, Western blot for Smad4
[2] = biological target: SUMO1 (mouse) (mouse (endogenous in C57BL/6 liver and RAW 264.7)) (UniProt P63166); assay: co-IP; RAW 264.7 cells treated with LPS (1 ug/mL), EgCF (1 mg/mL) and GA (10 nM) for 12 h; RIPA lysate; IP with anti-SUMO1 antibody or mouse IgG control, protein A/G magnetic beads, Western blot for Smad4
[3] = biological target: SUMO1 (human) (human (endogenous in THP-1)) (UniProt P63165); assay: co-IP; THP-1 cells treated with LPS (1 ug/mL), EgCF (1 mg/mL) and GA (10 nM) for 12 h, also with SENP1 siRNA knock-down; RIPA lysate; IP with anti-SUMO1 antibody or mouse IgG control, protein A/G magnetic beads, Western blot for Smad4

Sequences of proteins named here, by UniProt entry; tags and fusion partners are left off. Residues count along the entry.
UniProt P63166, residues 1-97: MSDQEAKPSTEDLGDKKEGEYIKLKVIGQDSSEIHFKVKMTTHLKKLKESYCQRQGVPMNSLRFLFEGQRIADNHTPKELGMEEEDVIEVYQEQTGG
UniProt P63165, residues 1-97: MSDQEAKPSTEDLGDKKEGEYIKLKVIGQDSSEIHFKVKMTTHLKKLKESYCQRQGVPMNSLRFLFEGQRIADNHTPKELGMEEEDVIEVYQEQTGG
UniProt P97471: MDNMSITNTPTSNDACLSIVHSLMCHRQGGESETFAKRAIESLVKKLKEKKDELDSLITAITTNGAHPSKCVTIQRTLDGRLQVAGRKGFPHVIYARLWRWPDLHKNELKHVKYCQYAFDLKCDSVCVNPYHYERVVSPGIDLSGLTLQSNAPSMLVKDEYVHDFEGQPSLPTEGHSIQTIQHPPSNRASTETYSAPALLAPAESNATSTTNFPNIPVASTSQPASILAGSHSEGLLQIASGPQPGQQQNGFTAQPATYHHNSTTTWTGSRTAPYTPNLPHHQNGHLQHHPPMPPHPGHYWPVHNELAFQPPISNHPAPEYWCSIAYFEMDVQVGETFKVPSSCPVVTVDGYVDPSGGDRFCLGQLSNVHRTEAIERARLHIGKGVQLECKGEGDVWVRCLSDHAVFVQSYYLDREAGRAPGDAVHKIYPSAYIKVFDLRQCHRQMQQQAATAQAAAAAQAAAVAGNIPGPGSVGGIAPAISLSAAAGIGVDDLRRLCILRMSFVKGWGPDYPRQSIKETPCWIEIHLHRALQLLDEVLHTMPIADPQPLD
UniProt Q13485: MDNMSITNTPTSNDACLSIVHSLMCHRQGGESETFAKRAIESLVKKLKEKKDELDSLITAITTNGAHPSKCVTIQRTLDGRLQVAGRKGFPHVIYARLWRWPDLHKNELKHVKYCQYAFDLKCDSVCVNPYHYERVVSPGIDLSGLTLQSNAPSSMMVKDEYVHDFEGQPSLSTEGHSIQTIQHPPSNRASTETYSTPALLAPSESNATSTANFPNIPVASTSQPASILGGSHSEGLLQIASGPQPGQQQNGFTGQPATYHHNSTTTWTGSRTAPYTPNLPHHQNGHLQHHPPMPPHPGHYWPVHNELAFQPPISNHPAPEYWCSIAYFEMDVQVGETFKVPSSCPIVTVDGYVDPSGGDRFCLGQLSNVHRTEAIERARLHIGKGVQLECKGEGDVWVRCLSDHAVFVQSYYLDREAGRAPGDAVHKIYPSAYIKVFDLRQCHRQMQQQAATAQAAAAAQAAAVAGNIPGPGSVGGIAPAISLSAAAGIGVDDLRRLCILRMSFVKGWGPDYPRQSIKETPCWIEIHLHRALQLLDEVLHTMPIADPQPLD

Row | Substance | binding [1] | binding [2] | binding [3]
1 | Smad4 (mouse) (from UniProt P97471 1-551) | binds | binds | –
2 | Smad4 (human) (from UniProt Q13485 1-552) | – | – | binds

From PMC12818747
